# The other results are listed elsewhere or left out.
# B1: LERP (Drosophila melanogaster), B7Z0Q8 (protein)
# chain: MRCSLQKDCAAPTQENFRQMRFPIVISLLLLLFCSGESVAADAANQLKFSTTECKLKEPIYGSTFDFSGLHSDLAHVVKSMNIGGDQFEFNICGNLSRTCNGESNVAACLKRQGKEYILGRQHELFYNNGNMFLKYKSGAKCDNGTADKPNYQLHVMFSCDYTLDAQPMHVTPYANEVCSFYISYRTPLACLSIPEGLQSNSCRVGDTKSNGTFDLMPLSDSNYHTSNRQGAFFVINVCKPVLYGENSMCPAGSSVCLFDSKATNPKERFINFGNVQTHPVVEKGQLLLRHESPTPCAKNSSANYTSVIYFSCDKFIRNAHPEFAGLGADSCTYQFNFATPLACNDLKPCTAFTSTNELLDLSSLSSKPARTLLKDGKNYTIAVCAHAGAPCQENGGACYEQNSTTISLGNSNSQLRFNQTGSLYLLYEDGAECSTATGMRRWSTKIEFVCANNATKDNGASTAGGSDSLKIIEDSNCQLLIQYQTPLACREPIRCKATTYVDHTNDGLGSSGDELIDLTPLISATDNYEARVELPASMEHLVPKTTKFFLNVCRPLVPKYQLGCAGGSAACMAKVTAAGAPEEERSMGFPLVSLTQRNRTFAELAYLKGDPCPTDNTSELSTHILFNCNMRAGRGQPVLRSVEDCAYRFEWETNVFCPPHECTFSADTCDLVHDELGRRFNFKSAPFTKDGKIEIDYNATKMSVNICGAHRKAMTDYSQALVNIFFTHESPNCGREGTMNVQIRLICSDQTESSSTISSDQQCNLLYVQRTPSICEFLSLGATQQNFESNGSTSSSTSSSSTSTTTSTTTQASPAGKPTKAATSTTTTTVGPDPAATPIGPTASVGTILGAILSVTFCVTCLGLLAFSPARRQRIRRLFRRSNSAVRYSRVQSNEEANLLLEPNGEFTESDDDMLL
# Experiments:
# Test in all cases: glycan array binding signal (z-score within array); higher = stronger binding
# Settings in all cases: glycan notation: IUPAC condensed, linker removed
# [1] = target: Fuc(a1-2)Gal
# Procedure, shortened: (§1)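 Glycan array data were curated from 3228 arrays in the Consortium for Functional Glycomics database and kept only where the protein sequence was available. Glycan names were converted to IUPAC-condensed notation, and columns mapping to the same glycan were averaged. The binding signal is a within-array Z-score, averaged across arrays of the same protein sequence at different concentrations or buffers and across linkers. Negative Z-scores can be read as non-binding.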
# [2] = target: Fuc(a1-2)Gal(b1-3)GalNAc
# Procedure, shortened: as §1
# [3] = target: Fuc(a1-2)Gal(b1-3)GalNAc(a1-3)[Fuc(a1-2)]Gal(b1-4)Glc
# Procedure, shortened: as §1
# [4] = target: Fuc(a1-2)Gal(b1-3)GalNAc(a1-3)[Fuc(a1-2)]Gal(b1-4)GlcNAc
# Procedure, shortened: as §1
# [5] = target: Fuc(a1-2)Gal(b1-3)GalNAc(b1-3)Gal
# Procedure, shortened: as §1
# [6] = target: Fuc(a1-2)Gal(b1-3)GalNAc(b1-3)Gal(a1-4)Gal(b1-4)Glc
# Procedure, shortened: as §1
# [7] = target: Fuc(a1-2)Gal(b1-3)GalNAc(b1-4)[Neu5Ac(a2-3)]Gal(b1-4)Glc
# Procedure, shortened: as §1
# [8] = target: Fuc(a1-2)Gal(b1-3)GlcNAc
# Procedure, shortened: as §1
# [9] = target: Fuc(a1-2)Gal(b1-3)GlcNAc(b1-2)Man(a1-3)[Fuc(a1-2)Gal(b1-3)GlcNAc(b1-2)Man(a1-6)]Man(b1-4)GlcNAc(b1-4)GlcNAc
# Procedure, shortened: as §1
# [10] = target: Fuc(a1-2)Gal(b1-3)GlcNAc(b1-3)Gal(b1-4)Glc
# Procedure, shortened: as §1
# [11] = target: Fuc(a1-2)Gal(b1-3)GlcNAc(b1-3)[Fuc(a1-3)[Gal(b1-4)]GlcNAc(b1-6)]Gal(b1-4)Glc
# Procedure, shortened: as §1
# [12] = target: Fuc(a1-2)Gal(b1-3)[Fuc(a1-4)]GlcNAc
# Procedure, shortened: as §1
# [13] = target: Fuc(a1-2)Gal(b1-3)[Fuc(a1-4)]GlcNAc(b1-2)Man(a1-3)[Fuc(a1-2)Gal(b1-3)[Fuc(a1-4)]GlcNAc(b1-2)Man(a1-6)]Man(b1-4)GlcNAc(b1-4)GlcNAc
# Procedure, shortened: as §1
# [14] = target: Fuc(a1-2)Gal(b1-3)[Fuc(a1-4)]GlcNAc(b1-3)[Fuc(a1-3)[Gal(b1-4)]GlcNAc(b1-6)]Gal(b1-4)Glc
# Procedure, shortened: as §1
# [15] = target: Fuc(a1-2)Gal(b1-3)[Fuc(a1-4)]GlcNAc(b1-3)[Gal(b1-4)GlcNAc(b1-6)]Gal(b1-4)Glc
# Procedure, shortened: as §1
# [16] = target: Fuc(a1-2)Gal(b1-4)Glc
# Procedure, shortened: as §1
# [17] = target: Fuc(a1-2)Gal(b1-4)Glc6S
# Procedure, shortened: as §1
# [18] = target: Fuc(a1-2)Gal(b1-4)GlcNAc
# Procedure, shortened: as §1
# [19] = target: Fuc(a1-2)Gal(b1-4)GlcNAc(b1-2)Man(a1-3)[Fuc(a1-2)Gal(b1-4)GlcNAc(b1-2)Man(a1-6)]Man(b1-4)GlcNAc(b1-4)GlcNAc
# Procedure, shortened: as §1
# [20] = target: Fuc(a1-2)Gal(b1-4)GlcNAc(b1-3)Gal(b1-4)GlcNAc
# Procedure, shortened: as §1
# [21] = target: Fuc(a1-2)Gal(b1-4)GlcNAc(b1-3)Gal(b1-4)GlcNAc(b1-3)Gal(b1-4)GlcNAc
# Procedure, shortened: as §1
# [22] = target: Fuc(a1-2)Gal(b1-4)GlcNAc(b1-3)GalNAc
# Procedure, shortened: as §1
binder,measurement,setting,value
B1,glycan array binding signal (z-score),[1],0.631
same,glycan array binding signal (z-score),[2],0.166
same,glycan array binding signal (z-score),[3],-0.866
same,glycan array binding signal (z-score),[4],0.063
same,glycan array binding signal (z-score),[5],2.1
same,glycan array binding signal (z-score),[6],-0.188
same,glycan array binding signal (z-score),[7],-0.469
same,glycan array binding signal (z-score),[8],-0.642
same,glycan array binding signal (z-score),[9],0.555
same,glycan array binding signal (z-score),[10],-0.631
same,glycan array binding signal (z-score),[11],-0.935
same,glycan array binding signal (z-score),[12],0.026
same,glycan array binding signal (z-score),[13],-1.26
same,glycan array binding signal (z-score),[14],0.297
same,glycan array binding signal (z-score),[15],-0.354
same,glycan array binding signal (z-score),[16],-1.18
same,glycan array binding signal (z-score),[17],0.589
same,glycan array binding signal (z-score),[18],-0.13
same,glycan array binding signal (z-score),[19],-0.442
same,glycan array binding signal (z-score),[20],0.534
same,glycan array binding signal (z-score),[21],1.83
same,glycan array binding signal (z-score),[22],2.32

# Nothing new here: an excerpt of the list.
binder,measurement,setting,value
B1,glycan array binding signal (z-score),[5],2.1
same,glycan array binding signal (z-score),[6],-0.188
